Data published in article PMC10350061.
No constants are given. Whether binding was seen depends on the method and setting. Binding seen in cells or lysates may run through a third protein. Binding can be weak; no strength is given.

Target: Numb (mouse (endogenous in C2C12))
Experiment: co-IP; endogenous Numb precipitated with anti-Numb antibody from lysate of C2C12 myotubes (three independent samples, other than those for LC/MS/MS); Western blot with anti-Septin 7 (Proteintech 13818-1-AP); control IgG

B1: Septin 7 (protein, UniProt O55131 1-436)
chain: MSVSARSAAAEERSVNCGTMAQPKNLEGYVGFANLPNQVYRKSVKRGFEFTLMVVGESGLGKSTLINSLFLTDLYSPEYPGPSHRIKKTVQVEQSKVLIKEGGVQLLLTIVDTPGFGDAVDNSNCWQPVIDYIDSKFEDYLNAESRVNRRQMPDNRVQCCLYFIAPSGHGLKPLDIEFMKRLHEKVNIIPLIAKADTLTPEECQQFKKQIMKEIQEHKIKIYEFPETDDEEENKLVKKIKDRLPLAVVGSNTIIEVNGKRVRGRQYPWGVAEVENGEHCDFTILRNMLIRTHMQDLKDVTNNVHYENYRSRKLAAVTYNGVDNNKNKGQLTKSPLAQMEEERREHVAKMKKMEMEMEQVFEMKVKEKVQKLKDSEAELQRRHEQMKKNLEAQHKELEEKRRQFEEEKANWEAQQRILEQQNSSRTLEKNKKKGKIF
Q: B1 was tested. Which binding did it give?
A: binds
